This note sets out measurements from US20060099713A1.

By UniProt entry, the sequences of proteins in these tests, tags left out. Residues count along the entry.
UniProt P46935, residues 455-498: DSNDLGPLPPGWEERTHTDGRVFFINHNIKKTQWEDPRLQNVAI

No constants are given. Whether binding was seen depends on the method and setting. Some entries that bind do so weakly or less than the wild type. Sequences can lack the tags named with a protein.

In this experiment the target is third WW domain of the mouse Nedd4 ubiquitin protein ligase (Nedd4-WW3) (mouse) (UniProt P46935). The experiment in a line: TAIS screen of T7 phage-displayed human brain cDNA library.

B1: polypeptide from lysosomal-associated multispanning membrane protein-5 (LAPTM5) selected by Nedd4-WW3 (peptide, not shown: large carriers)
peptide: SSYRLIKCMNSVEEKRNSKMLQKVVLPSYEEALSLPSKTPEGGPAPPPYSEV
For B1, the binding result is on record as “binds”.

B2: polypeptide from N-chimaerin homolog (DKFZp434A1010) selected by Nedd4-WW3 (peptide, not shown: large carriers)
peptide: GPRTPHRVPGPWGPPEPLLLYRAAPPAYGRGGELHRGSLYRNGGQRGEGAGPPPPYPTPSWSLHSEGQTRSYC
As to B2, the binding entry is “binds”.

B3: polypeptide from Nogo-A protein short form (390-491) selected by Nedd4-WW3 (peptide, not shown: large carriers)
peptide: SAVPSAGASVIQPSSSPLEASSVNYESIKHEPENPPPYEEAMSVSLKKVSGIKEEIKEPENINAALQETEAPYISIACDLIKETKLSAEPAPDFSDYSEMAK
On to B3, for which the binding entry is reported as “binds”.

For the molecule STPEKTDMTPSTTSPPSYDSVTKPEKEKFEKDKSEKEDKGKDIRESKK (peptide, not shown: large carriers; small tags and cut ends) [polypeptide from voltage-gated sodium channel type II alpha subunit (SCN2A) selected by Nedd4-WW3], the binding result is on record as “binds”.
